Measurements: patent US7425557B2, “Inhibitors of glycogen synthase kinase 3” (Novartis Vaccines and Diagnostics, Inc., priority 1998, dated 2008)
pIC50: −log10 of the molar value. Some of these results come from one statement about several compounds together. At least one structure is not confirmed: it was looked up by name or label, or the drawing left a doubt.

The chains behind the UniProt entries cited, without tags or fusion partners. Where a name states a change or a piece, a line headed by the entry shows the natural chain unless it says otherwise.
UniProt P49841: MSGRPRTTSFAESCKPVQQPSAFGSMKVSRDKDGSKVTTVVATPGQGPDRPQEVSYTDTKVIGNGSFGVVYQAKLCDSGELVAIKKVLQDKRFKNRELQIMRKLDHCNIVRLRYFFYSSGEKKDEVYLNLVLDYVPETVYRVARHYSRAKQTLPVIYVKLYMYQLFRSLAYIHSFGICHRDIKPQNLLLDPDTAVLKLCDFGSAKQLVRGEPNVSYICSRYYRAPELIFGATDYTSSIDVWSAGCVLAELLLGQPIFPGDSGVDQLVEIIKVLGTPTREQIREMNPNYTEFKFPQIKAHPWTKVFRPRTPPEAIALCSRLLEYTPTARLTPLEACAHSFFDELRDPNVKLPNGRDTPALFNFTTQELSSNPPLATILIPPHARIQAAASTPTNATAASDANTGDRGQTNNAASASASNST

Biological target: human GSK3β (Homo sapiens, UniProt P49841)
Assay: Screening for GSK3 inhibitory activity using a cell-free assay
Assay type: biochemical
Details: read-out: IC50 with respect to GSK3
Method: This amount represents the amount of radiolabeled phosphate incorporated into the peptide substrate.
The captured radiolabeled peptide substrate can be quantitated in a scintillation counter using known methods. […] If an inhibitor is present during the reaction, GSK3 activity will be reduced, and a smaller quantity of radiolabeled phosphate will thus be incorporated into the peptide substrate.
Pyrimidine and pyridine compounds of the present invention were dissolved in DMSO, then tested for inhibition of human GSK3β (the nucleotide sequence for human GSK3β appears in GenBank under Accession No. L33801).
While the reaction was proceeding, streptavidin-coated Labsystems “Combiplate 8” capture plates (Labsystems, Helsinki, Finland) were blocked by incubating them with 300 μl/well of PBS containing 1% bovine serum albumin for at least one hour at room temperature. The blocking solution was then removed by aspiration, and the capture plates were filled with 100 ul/well of stopping reagent (50 μM ATP/20 mM EDTA).
When the three hour enzyme reaction was finished, triplicate 100 μl aliquots of each reaction mix were transferred to three wells containing stopping solution, one well on each of the three capture plates, and the well contents were mixed well. […] Finally, 200 μl of Microscint-20 scintillation fluid was added to each well of the plate. The plates were coated with plate sealers, then left on a shaker for 30 minutes. Each capture plate was counted in a Packard TopCount scintillation counter (Meridian, Conn.) and the results were plotted as a function of compound concentration.

Compound: NC(=O)c1ccc(-c2ccnc(NCCc3cnc[nH]3)n2)cc1
- pIC50: ≥ 5.00

Compound: 1-(2-(2,4-dichlorophenyl)-6-{[2-({5-[hydroxy(oxido)amino]-2-pyridinyl}amino)ethyl]amino}-3-pyridinyl)-4-methyl-2-piperazinone
- pIC50: ≥ 5.00

Compound: 1-(2-(2,4-dichlorophenyl)-6-{[2-({5-[hydroxy(oxido)amino]-6-methoxy-2-pyridinyl}amino)-ethyl]amino}-3-pyridinyl)-4-methyl-2-piperazinone
- pIC50: ≥ 5.00

Compound: 1-(6-{[2-({6-amino-5-[hydroxy(oxido)amino]-2-pyridinyl}amino)ethyl]-amino}-2-phenyl-3-pyridinyl)-4-methyl-2-piperazinone
- pIC50: ≥ 5.00

Compound: 1-[2-{[2-({6-amino-5-[hydroxy(oxido)amino]-2-pyridinyl}amino)ethyl]amino}-4-(2,4-dichlorophenyl)-5-pyrimidinyl]-2-piperazinone
- pIC50: ≥ 5.00

Compound: 1-[2-{[2-({6-amino-5-[hydroxy(oxido)amino]-2-pyridinyl}amino)ethyl]amino}-4-(2,4-dichlorophenyl)-5-pyrimidinyl]-4-ethyl-3-methyl-2-piperazinone
- pIC50: ≥ 5.00

Compound: 1-[6-[2-({6-amino-5-[hydroxy(oxido)amino]-2-pyridinyl}amino)ethoxy]-2-(2,4-dichlorophenyl)-3-pyridinyl]-4-methyl-2-piperazinone
- pIC50: ≥ 5.00

Compound: 1-[6-[3-({6-amino-5-[hydroxy(oxido)amino]-2-pyridinyl}amino)propyl]-2-(2,4-dichlorophenyl)-3-pyridinyl]-4-methyl-2-piperazinone
- pIC50: ≥ 5.00

Compound: 1-[6-[[2-({6-amino-5-[hydroxy(oxido)amino]-2-pyridinyl}amino)ethyl](methyl)amino]-2-(2,4-dichlorophenyl)-3-pyridinyl]-4-methyl-2-piperazinone
- pIC50: ≥ 5.00

Compound: 1-[6-{[2-({6-amino-5-[hydroxy(oxido)-amino]-2-pyridinyl}amino)ethyl][2-(1-pyrrolidinyl)ethyl]amino}-2-(2,4-dichlorophenyl)-3-pyridinyl]-4-methyl-2-piperazinone
- pIC50: ≥ 5.00

Compound: 1-[6-{[2-({6-amino-5-[hydroxy(oxido)amino]-2-pyridinyl}-amino)ethyl]amino}-2-(2,4-dichlorophenyl)-3-pyridinyl]-3,4-dimethyl-2-piperazinone
- pIC50: ≥ 5.00

Compound: 1-[6-{[2-({6-amino-5-[hydroxy(oxido)amino]-2-pyridinyl}-amino)ethyl]amino}-2-(2,4-dichlorophenyl)-3-pyridinyl]-4-cyclopropyl-2-piperazinone
- pIC50: ≥ 5.00

Compound: 1-[6-{[2-({6-amino-5-[hydroxy(oxido)amino]-2-pyridinyl}-amino)ethyl]amino}-2-(2,4-difluorophenyl)-3-pyridinyl]-4-ethyl-2-piperazinone
- pIC50: ≥ 5.00

Compound: 1-[6-{[2-({6-amino-5-[hydroxy(oxido)amino]-2-pyridinyl}-amino)ethyl]amino}-2-(4-chloro-2-methylphenyl)-3-pyridinyl]-4-methyl-2-piperazinone
- pIC50: ≥ 5.00

Compound: 1-[6-{[2-({6-amino-5-[hydroxy(oxido)amino]-2-pyridinyl}amino)-1,1-dimethylethyl]amino}-2-(2,4-dichlorophenyl)-3-pyridinyl]-4-methyl-2-piperazinone
- pIC50: ≥ 5.00

Compound: 1-[6-{[2-({6-amino-5-[hydroxy(oxido)amino]-2-pyridinyl}amino)-1-methylethyl]amino}-2-(2,4-dichlorophenyl)-3-pyridinyl]-4-methyl-2-piperazinone
- pIC50: ≥ 5.00

Compound: 1-[6-{[2-({6-amino-5-[hydroxy(oxido)amino]-2-pyridinyl}amino)ethyl]-amino}-2-(2,4-dichlorophenyl)-3-pyridinyl]-4-(2,2,2-trifluoroethyl)-2-piperazinone
- pIC50: ≥ 5.00

Compound: 1-[6-{[2-({6-amino-5-[hydroxy(oxido)amino]-2-pyridinyl}amino)ethyl]-amino}-2-(2,4-dichlorophenyl)-3-pyridinyl]-4-ethyl-2-piperazinone
- pIC50: ≥ 5.00

Compound: 1-[6-{[2-({6-amino-5-[hydroxy(oxido)amino]-2-pyridinyl}amino)ethyl]-amino}-2-(2,4-difluorophenyl)-3-pyridinyl]-4-methyl-2-piperazinone
- pIC50: ≥ 5.00

Compound: 1-[6-{[2-({6-amino-5-[hydroxy(oxido)amino]-2-pyridinyl}amino)ethyl][2-(4-morpholinyl)ethyl]-amino}-2-(2,4-dichlorophenyl)-3-pyridinyl]-4-methyl-2-piperazinone
- pIC50: ≥ 5.00

Compound: 1-[6-{[2-({6-amino-5-[hydroxy(oxido)amino]-2-pyridinyl}amino)ethyl]amino}-2-(2,4-dichlorophenoxy)-3-pyridinyl]-4-methyl-2-piperazinone
- pIC50: ≥ 5.00

Compound: 1-[6-{[2-({6-amino-5-[hydroxy(oxido)amino]-2-pyridinyl}amino)ethyl]amino}-2-(2,4-dichlorophenyl)-3-pyridinyl]-2-piperazinone
- pIC50: ≥ 5.00

Compound: 1-[6-{[2-({6-amino-5-[hydroxy(oxido)amino]-2-pyridinyl}amino)ethyl]amino}-2-(2,4-dichlorophenyl)-3-pyridinyl]-2-piperidinone
- pIC50: ≥ 5.00

Compound: 1-[6-{[2-({6-amino-5-[hydroxy(oxido)amino]-2-pyridinyl}amino)ethyl]amino}-2-(2,4-dichlorophenyl)-3-pyridinyl]-4-(methylsulfonyl)-2-piperazinone
- pIC50: ≥ 5.00

Compound: 1-[6-{[2-({6-amino-5-[hydroxy(oxido)amino]-2-pyridinyl}amino)ethyl]amino}-2-(2,4-dichlorophenyl)-3-pyridinyl]-4-cyclohexyl-2-piperazinone
- pIC50: ≥ 5.00

Compound: 1-[6-{[2-({6-amino-5-[hydroxy(oxido)amino]-2-pyridinyl}amino)ethyl]amino}-2-(2,4-dichlorophenyl)-3-pyridinyl]-4-isopropyl-2-piperazinone
- pIC50: ≥ 5.00

Compound: 1-[6-{[2-({6-amino-5-[hydroxy(oxido)amino]-2-pyridinyl}amino)ethyl]amino}-2-(2-bromophenyl)-3-pyridinyl]-4-methyl-2-piperazinone
- pIC50: ≥ 5.00

Compound: 1-[6-{[2-({6-amino-5-[hydroxy(oxido)amino]-2-pyridinyl}amino)ethyl]amino}-2-(3-chlorophenyl)-3-pyridinyl]-4-methyl-2-piperazinone
- pIC50: ≥ 5.00

Compound: 1-[6-{[2-({6-amino-5-[hydroxy(oxido)amino]-2-pyridinyl}amino)ethyl]amino}-2-(3-furyl)-3-pyridinyl]-4-methyl-2-piperazinone
- pIC50: ≥ 5.00

Compound: 1-[6-{[2-({6-amino-5-[hydroxy(oxido)amino]-2-pyridinyl}amino)ethyl]amino}-2-(4-bromophenyl)-3-pyridinyl]-4-methyl-2-piperazinone
- pIC50: ≥ 5.00

Compound: 1-[6-{[2-({6-amino-5-[hydroxy(oxido)amino]-2-pyridinyl}amino)ethyl]amino}-2-(4-chlorophenyl)-3-pyridinyl]-4-methyl-2-piperazinone
- pIC50: ≥ 5.00

Compound: 1-[6-{[2-({6-amino-5-[hydroxy(oxido)amino]-2-pyridinyl}amino)ethyl]amino}-2-(4-ethylphenyl)-3-pyridinyl]-4-methyl-2-piperazinone
- pIC50: ≥ 5.00

Compound: 1-[6-{[2-({6-amino-5-[hydroxy(oxido)amino]-2-pyridinyl}amino)ethyl]amino}-2-(4-methoxyphenyl)-3-pyridinyl]-4-methyl-2-piperazinone
- pIC50: ≥ 5.00

Compound: 1-[6-{[2-({6-amino-5-[hydroxy(oxido)amino]-2-pyridinyl}amino)propyl]amino}-2-(2,4-dichlorophenyl)-3-pyridinyl]-4-ethyl-2-piperazinone
- pIC50: ≥ 5.00

Compound: 1-[6-{[2-({6-amino-5-[hydroxy(oxido)amino]-2-pyridinyl}amino)propyl]amino}-2-(2,4-dichlorophenyl)-3-pyridinyl]-4-methyl-2-piperazinone
- pIC50: ≥ 5.00

Compound: 1-[6-{[2-({6-amino-5-[hydroxy(oxido)amino]-2-pyridinyl}oxy)-ethyl]amino}-2-(2,4-dichlorophenyl)-3-pyridinyl]-4-methyl-2-piperazinone
- pIC50: ≥ 5.00

Compound: 1-[6-{[2-({6-amino-5-[hydroxy-(oxido)amino]-2-pyridinyl}amino)propyl]amino}-2-(2,4-dichlorophenyl)-3-pyridinyl]-4-methyl-2-piperazinone
- pIC50: ≥ 5.00

Compound: 1-{6-{[2-({6-amino-5-[hydroxy(oxido)amino]-2-pyridinyl}amino)ethyl]amino}-2-[2-(trifluoromethyl)phenyl]-3-pyridinyl}-4-methyl-2-piperazinone
- pIC50: ≥ 5.00

Compound: 2-[6-{[2-({6-amino-5-[hydroxy(oxido)amino]-2-pyridinyl}amino)ethyl]amino}-2-(2,4-dichlorophenyl)-3-pyridinyl]-hexahydropyrrolo[1,2-a]pyrazin-1(2H)-one
- pIC50: ≥ 5.00

Compound: 2-[6-{[2-({6-amino-5-[hydroxy(oxido)amino]-2-pyridinyl}amino)ethyl]amino}-2-(2,4-dichlorophenyl)-3-pyridinyl]hexahydropyrrolo-[1,2-a]pyrazin-1(2H)-one
- pIC50: ≥ 5.00

Compound: 2-[6-{[2-({6-amino-5-[hydroxy(oxido)amino]-2-pyridinyl}amino)ethyl]amino}-2-(2,4-dichlorophenyl)-3-pyridinyl]hexahydropyrrolo[1,2-a]pyrazin-3(4H)-one
- pIC50: ≥ 5.00
